This passage reports binding results from patent US20200247886A1.

Chains of the proteins cited; added tags and fusions are not shown. Lines headed by an entry give the natural chain unless they say otherwise; changes in a name come on top.
UniProt Q08722: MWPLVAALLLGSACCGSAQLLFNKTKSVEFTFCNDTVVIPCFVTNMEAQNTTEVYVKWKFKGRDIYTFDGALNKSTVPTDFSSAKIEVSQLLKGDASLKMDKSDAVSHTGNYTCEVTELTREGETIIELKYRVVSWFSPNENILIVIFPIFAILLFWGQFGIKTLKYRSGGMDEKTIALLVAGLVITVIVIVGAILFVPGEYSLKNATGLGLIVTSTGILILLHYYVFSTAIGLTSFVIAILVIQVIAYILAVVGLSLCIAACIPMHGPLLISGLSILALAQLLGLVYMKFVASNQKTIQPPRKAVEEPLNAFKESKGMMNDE

These are yes or no findings as the source states them, for the method shown. Some binding calls cover weakened binding; strength is not graded here.

Test [1] concerns the target CD47 protein (construct not stated; SPR antigen, CD47 coated ELISA plates) (Homo sapiens (Human)) (UniProt Q08722). As to the kind of experiment: EC50 as grade, ELISA on CD47 coated plates; legend +: <0.06 µg/mL. For orientation: An ELISA detects its analyte on a solid surface through an enzyme-linked reagent.
Test [2] has the same target. Briefly: ELISA, CD47 coated plates, OD at 450.

B1: H-ABU 12 (antibody, V domains shown)
VH: QVQLVQSGAEVKKPGASVKVSCKASGYTFTNYWMQWVRQAPGQGLEWMGMIDPSDSESRLNQKFKDRVTMTRDTSTSTVYMELSSLRSEDTAVYYCARRGSPMITSFAYWGQGTLVTVSS
VL: DIQMTQSPSSLSASVGDRVTITCRASKNIGKYLAWFQQKPGKAPKSLIYSGSTLQSGVPSRFSGSGSGTDFTLTISSLQPEDFATYYCQQHNEYPYTFGGGTKVEIK
For the molecule B1, the binding result in test [1] and in test [2] was “binds” each time.

B2: H-ABU 19 (antibody, V domains shown)
VH: QVQLVQSGAEVKKPGASVKVSCKTSGYSFTNYWMQWVRQAPGQGLEWMGMIDPSDSESRLNQKFKDRVTMTRDTSTSTAYMELSSLRSEDTAVYYCARRGSPMITSFAYWGQGTLVTVSS
VL: DIQMTQSPSSLSASVGDRVTITCRASKNIGKYLAWFQQKPGKAPKSLIYSGSTLQSGIPSRFSGSGSGTDFTLTISSLQPEDFATYYCQQHNEYPYTFGGGTKVEIK
B2: the binding entry in test [1] and in test [2] was “binds” in each case.

B3: H-ABU 27 (antibody, V domains shown)
VH: QVQLVQSGAEVKKPGASVKVSCKTSGYSFTNYWMQWVRQAPGQGLEWIGMIDPSDSESRLNQKFKDRATLTVDTSTSTAYMELSSLRSEDTAVYYCARRGSPMITSFAYWGQGTLVTVSS
VL: DIQMTQSPSSLSASVGDRVTITCRASKNIGKYLAWFQQKPGKAPKSLIYSGSTLQSGVPSRFSGSGSGTDFTLTISSLQPEDFATYYCQQHNEYPYTFGGGTKVEIK
B3: the binding result in test [1] and in test [2] was “binds” throughout.

B4: H-ABU 22 (antibody, V domains shown)
VH: QVQLVQSGAEVKKPGASVKVSCKASGYTFTNYWMQWVRQAPGQGLEWIGMIDPSDSESRLNQKFKDRATLTVDTSTSTVYMELSSLRSEDTAVYYCARRGSPMITSFAYWGQGTLVTVSS
VL: DIQMTQSPSSLSASVGDRVTITCRASKNIGKYLAWFQQKPGKAPKSLIYSGSTLQSGVPSRFSGSGSGTDFTLTISSLQPEDFATYYCQQHNEYPYTFGGGTKVEIK
As to B4, the binding result in test [1] and in test [2] was “binds” each time.

B5: H-ABU 21 (antibody, V domains shown)
VH: QVQLVQSGAEVKKPGASVKVSCKTSGYSFTNYWMQWVRQAPGQGLEWMGMIDPSDSESRLNQKFKDRVTMTRDTSTSTAYMELSSLRSEDTAVYYCARRGSPMITSFAYWGQGTLVTVSS
VL: DVQITQSPSSLSASVGDRVTITCRASKNIGKYLAWFQQKPGKTNKLLIYSGSTLQSGIPSRFSGSGSGTDFTLTISSLQPEDFATYYCQQHNEYPYTFGGGTKVEIK
On to B5, for which the binding result in test [1] and in test [2] was “binds” in each case.

B6: H-ABU 30 (antibody, V domains shown)
VH: QVQLVQSGAEVKKPGASVKVSCKTSGYSFTNYWMQWVRQAPGQGLEWIGMIDPSDSESRLNQKFKDRATLTVDTSTSTAYMELSSLRSEDTAVYYCARRGSPMITSFAYWGQGTLVTVSS
VL: DVQITQSPSSLSASVGDRVTITCRASKNIGKYLAWFQQKPGKAPKSLIYSGSTLQSGIPSRFSGSGSGTDFTLTISSLQPEDFATYYCQQHNEYPYTFGGGTKVEIK
With B6, the binding result in test [1] and in test [2] was “binds” throughout.

B7: H-ABU 20 (antibody, V domains shown)
VH: QVQLVQSGAEVKKPGASVKVSCKTSGYSFTNYWMQWVRQAPGQGLEWMGMIDPSDSESRLNQKFKDRVTMTRDTSTSTAYMELSSLRSEDTAVYYCARRGSPMITSFAYWGQGTLVTVSS
VL: DVQITQSPSSLSASVGDRVTITCRASKNIGKYLAWFQQKPGKAPKSLIYSGSTLQSGIPSRFSGSGSGTDFTLTISSLQPEDFATYYCQQHNEYPYTFGGGTKVEIK
Consider B7, for which the binding result in test [1] and in test [2] was “binds” throughout.

B8: H-ABU 28 (antibody, V domains shown)
VH: QVQLVQSGAEVKKPGASVKVSCKTSGYSFTNYWMQWVRQAPGQGLEWIGMIDPSDSESRLNQKFKDRATLTVDTSTSTAYMELSSLRSEDTAVYYCARRGSPMITSFAYWGQGTLVTVSS
VL: DVQITQSPSSLSASVGDRVTITCRASKNIGKYLAWFQQKPGKAPKSLIYSGSTLQSGVPSRFSGSGSGTDFTLTISSLQPEDFATYYCQQHNEYPYTFGGGTKVEIK
B8: the binding entry in test [1] and in test [2] was “binds” each time.

B9: H-ABU 29 (antibody, V domains shown)
VH: QVQLVQSGAEVKKPGASVKVSCKTSGYSFTNYWMQWVRQAPGQGLEWIGMIDPSDSESRLNQKFKDRATLTVDTSTSTAYMELSSLRSEDTAVYYCARRGSPMITSFAYWGQGTLVTVSS
VL: DIQMTQSPSSLSASVGDRVTITCRASKNIGKYLAWFQQKPGKAPKSLIYSGSTLQSGIPSRFSGSGSGTDFTLTISSLQPEDFATYYCQQHNEYPYTFGGGTKVEIK
Take B9: the binding result in test [1] and in test [2] was “binds” in each case.

B10: H-ABU 13 (antibody, V domains shown)
VH: QVQLVQSGAEVKKPGASVKVSCKASGYTFTNYWMQWVRQAPGQGLEWMGMIDPSDSESRLNQKFKDRVTMTRDTSTSTVYMELSSLRSEDTAVYYCARRGSPMITSFAYWGQGTLVTVSS
VL: DVQITQSPSSLSASVGDRVTITCRASKNIGKYLAWFQQKPGKAPKSLIYSGSTLQSGVPSRFSGSGSGTDFTLTISSLQPEDFATYYCQQHNEYPYTFGGGTKVEIK
As to B10, the binding entry in test [1] and in test [2] was “binds” in each case.

B11: H-ABU 16 (antibody, V domains shown)
VH: QVQLVQSGAEVKKPGASVKVSCKASGYTFTNYWMQWVRQAPGQGLEWMGMIDPSDSESRLNQKFKDRVTMTRDTSTSTVYMELSSLRSEDTAVYYCARRGSPMITSFAYWGQGTLVTVSS
VL: DVQITQSPSSLSASVGDRVTITCRASKNIGKYLAWFQQKPGKTNKLLIYSGSTLQSGIPSRFSGSGSGTDFTLTISSLQPEDFATYYCQQHNEYPYTFGGGTKVEIK
Take B11: the binding result in test [1] and in test [2] was “binds” throughout.

B12: H-ABU 14 (antibody, V domains shown)
VH: QVQLVQSGAEVKKPGASVKVSCKASGYTFTNYWMQWVRQAPGQGLEWMGMIDPSDSESRLNQKFKDRVTMTRDTSTSTVYMELSSLRSEDTAVYYCARRGSPMITSFAYWGQGTLVTVSS
VL: DIQMTQSPSSLSASVGDRVTITCRASKNIGKYLAWFQQKPGKAPKSLIYSGSTLQSGIPSRFSGSGSGTDFTLTISSLQPEDFATYYCQQHNEYPYTFGGGTKVEIK
On to B12, for which the binding entry in test [1] and in test [2] was “binds” throughout.

B13: H-ABU 24 (antibody, V domains shown)
VH: QVQLVQSGAEVKKPGASVKVSCKASGYTFTNYWMQWVRQAPGQGLEWIGMIDPSDSESRLNQKFKDRATLTVDTSTSTVYMELSSLRSEDTAVYYCARRGSPMITSFAYWGQGTLVTVSS
VL: DIQMTQSPSSLSASVGDRVTITCRASKNIGKYLAWFQQKPGKAPKSLIYSGSTLQSGIPSRFSGSGSGTDFTLTISSLQPEDFATYYCQQHNEYPYTFGGGTKVEIK
Regarding B13, the binding result in test [1] and in test [2] was “binds” in each case.

B14: H-ABU 23 (antibody, V domains shown)
VH: QVQLVQSGAEVKKPGASVKVSCKASGYTFTNYWMQWVRQAPGQGLEWIGMIDPSDSESRLNQKFKDRATLTVDTSTSTVYMELSSLRSEDTAVYYCARRGSPMITSFAYWGQGTLVTVSS
VL: DVQITQSPSSLSASVGDRVTITCRASKNIGKYLAWFQQKPGKAPKSLIYSGSTLQSGVPSRFSGSGSGTDFTLTISSLQPEDFATYYCQQHNEYPYTFGGGTKVEIK
Turning to B14, the binding entry in test [1] and in test [2] was “binds” each time.

B15: H-ABU 15 (antibody, V domains shown)
VH: QVQLVQSGAEVKKPGASVKVSCKASGYTFTNYWMQWVRQAPGQGLEWMGMIDPSDSESRLNQKFKDRVTMTRDTSTSTVYMELSSLRSEDTAVYYCARRGSPMITSFAYWGQGTLVTVSS
VL: DVQITQSPSSLSASVGDRVTITCRASKNIGKYLAWFQQKPGKAPKSLIYSGSTLQSGIPSRFSGSGSGTDFTLTISSLQPEDFATYYCQQHNEYPYTFGGGTKVEIK
For the molecule B15, the binding entry in test [1] and in test [2] was “binds” throughout.

B16: H-ABU 25 (antibody, V domains shown)
VH: QVQLVQSGAEVKKPGASVKVSCKASGYTFTNYWMQWVRQAPGQGLEWIGMIDPSDSESRLNQKFKDRATLTVDTSTSTVYMELSSLRSEDTAVYYCARRGSPMITSFAYWGQGTLVTVSS
VL: DVQITQSPSSLSASVGDRVTITCRASKNIGKYLAWFQQKPGKAPKSLIYSGSTLQSGIPSRFSGSGSGTDFTLTISSLQPEDFATYYCQQHNEYPYTFGGGTKVEIK
For the molecule B16, the binding result in test [1] and in test [2] was “binds” throughout.

B17: H-ABU 18 (antibody, V domains shown)
VH: QVQLVQSGAEVKKPGASVKVSCKTSGYSFTNYWMQWVRQAPGQGLEWMGMIDPSDSESRLNQKFKDRVTMTRDTSTSTAYMELSSLRSEDTAVYYCARRGSPMITSFAYWGQGTLVTVSS
VL: DVQITQSPSSLSASVGDRVTITCRASKNIGKYLAWFQQKPGKAPKSLIYSGSTLQSGVPSRFSGSGSGTDFTLTISSLQPEDFATYYCQQHNEYPYTFGGGTKVEIK
In the case of B17, the binding entry in test [1] and in test [2] was “binds” in each case.

B18: H-ABU 17 (antibody, V domains shown)
VH: QVQLVQSGAEVKKPGASVKVSCKTSGYSFTNYWMQWVRQAPGQGLEWMGMIDPSDSESRLNQKFKDRVTMTRDTSTSTAYMELSSLRSEDTAVYYCARRGSPMITSFAYWGQGTLVTVSS
VL: DIQMTQSPSSLSASVGDRVTITCRASKNIGKYLAWFQQKPGKAPKSLIYSGSTLQSGVPSRFSGSGSGTDFTLTISSLQPEDFATYYCQQHNEYPYTFGGGTKVEIK
B18: the binding result in test [1] and in test [2] was “binds” in each case.

B19: H-ABU 26 (antibody, V domains shown)
VH: QVQLVQSGAEVKKPGASVKVSCKASGYTFTNYWMQWVRQAPGQGLEWIGMIDPSDSESRLNQKFKDRATLTVDTSTSTVYMELSSLRSEDTAVYYCARRGSPMITSFAYWGQGTLVTVSS
VL: DVQITQSPSSLSASVGDRVTITCRASKNIGKYLAWFQQKPGKTNKLLIYSGSTLQSGIPSRFSGSGSGTDFTLTISSLQPEDFATYYCQQHNEYPYTFGGGTKVEIK
B19: the binding result in test [1] and in test [2] was “binds” in each case.
